# Measured values reported in the supplement of paper PMC6411743.
# Sequences of proteins named here, by UniProt entry; tags and fusion partners are left off. A change or cut given only in a name is not applied to a line headed by its entry.
# UniProt Q7L0Y3: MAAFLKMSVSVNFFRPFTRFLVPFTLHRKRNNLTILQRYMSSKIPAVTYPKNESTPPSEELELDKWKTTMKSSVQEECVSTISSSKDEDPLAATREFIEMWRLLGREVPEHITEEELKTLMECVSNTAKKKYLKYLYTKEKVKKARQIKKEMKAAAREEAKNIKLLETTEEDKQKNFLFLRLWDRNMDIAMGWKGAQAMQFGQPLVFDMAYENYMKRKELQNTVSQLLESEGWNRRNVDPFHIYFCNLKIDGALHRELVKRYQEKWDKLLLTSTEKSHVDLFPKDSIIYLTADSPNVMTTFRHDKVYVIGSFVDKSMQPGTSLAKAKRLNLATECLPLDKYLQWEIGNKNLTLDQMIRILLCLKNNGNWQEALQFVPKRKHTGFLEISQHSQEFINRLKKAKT
# UniProt Q7Z6I6: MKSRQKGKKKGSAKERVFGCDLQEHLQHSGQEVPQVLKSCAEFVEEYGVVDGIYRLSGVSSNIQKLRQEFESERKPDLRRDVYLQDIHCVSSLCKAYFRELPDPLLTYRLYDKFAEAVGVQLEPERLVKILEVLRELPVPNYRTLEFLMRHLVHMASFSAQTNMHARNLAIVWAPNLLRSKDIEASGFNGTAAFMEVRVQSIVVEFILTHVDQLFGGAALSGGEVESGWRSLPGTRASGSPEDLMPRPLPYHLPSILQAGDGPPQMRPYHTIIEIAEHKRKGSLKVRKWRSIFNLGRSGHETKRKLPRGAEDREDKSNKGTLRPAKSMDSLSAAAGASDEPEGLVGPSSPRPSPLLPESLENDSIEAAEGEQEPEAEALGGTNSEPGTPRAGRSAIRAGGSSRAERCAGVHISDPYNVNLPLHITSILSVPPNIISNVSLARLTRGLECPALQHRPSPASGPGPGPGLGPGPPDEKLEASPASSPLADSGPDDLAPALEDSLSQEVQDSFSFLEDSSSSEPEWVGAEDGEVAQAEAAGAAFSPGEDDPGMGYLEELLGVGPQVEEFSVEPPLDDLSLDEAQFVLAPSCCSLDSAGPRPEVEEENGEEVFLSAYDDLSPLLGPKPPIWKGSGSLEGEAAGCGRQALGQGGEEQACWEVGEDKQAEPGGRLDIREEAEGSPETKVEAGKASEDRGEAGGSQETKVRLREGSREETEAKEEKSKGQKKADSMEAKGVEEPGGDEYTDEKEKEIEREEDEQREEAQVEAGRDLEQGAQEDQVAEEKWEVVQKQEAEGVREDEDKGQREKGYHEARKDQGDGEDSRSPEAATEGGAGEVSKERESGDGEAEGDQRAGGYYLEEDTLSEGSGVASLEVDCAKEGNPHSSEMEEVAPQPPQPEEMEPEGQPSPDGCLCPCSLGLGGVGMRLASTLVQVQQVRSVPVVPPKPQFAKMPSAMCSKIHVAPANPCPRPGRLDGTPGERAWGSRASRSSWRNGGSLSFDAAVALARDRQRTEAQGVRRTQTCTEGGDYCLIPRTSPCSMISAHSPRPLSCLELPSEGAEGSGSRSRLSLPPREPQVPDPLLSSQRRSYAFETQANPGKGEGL
# UniProt Q86XL3: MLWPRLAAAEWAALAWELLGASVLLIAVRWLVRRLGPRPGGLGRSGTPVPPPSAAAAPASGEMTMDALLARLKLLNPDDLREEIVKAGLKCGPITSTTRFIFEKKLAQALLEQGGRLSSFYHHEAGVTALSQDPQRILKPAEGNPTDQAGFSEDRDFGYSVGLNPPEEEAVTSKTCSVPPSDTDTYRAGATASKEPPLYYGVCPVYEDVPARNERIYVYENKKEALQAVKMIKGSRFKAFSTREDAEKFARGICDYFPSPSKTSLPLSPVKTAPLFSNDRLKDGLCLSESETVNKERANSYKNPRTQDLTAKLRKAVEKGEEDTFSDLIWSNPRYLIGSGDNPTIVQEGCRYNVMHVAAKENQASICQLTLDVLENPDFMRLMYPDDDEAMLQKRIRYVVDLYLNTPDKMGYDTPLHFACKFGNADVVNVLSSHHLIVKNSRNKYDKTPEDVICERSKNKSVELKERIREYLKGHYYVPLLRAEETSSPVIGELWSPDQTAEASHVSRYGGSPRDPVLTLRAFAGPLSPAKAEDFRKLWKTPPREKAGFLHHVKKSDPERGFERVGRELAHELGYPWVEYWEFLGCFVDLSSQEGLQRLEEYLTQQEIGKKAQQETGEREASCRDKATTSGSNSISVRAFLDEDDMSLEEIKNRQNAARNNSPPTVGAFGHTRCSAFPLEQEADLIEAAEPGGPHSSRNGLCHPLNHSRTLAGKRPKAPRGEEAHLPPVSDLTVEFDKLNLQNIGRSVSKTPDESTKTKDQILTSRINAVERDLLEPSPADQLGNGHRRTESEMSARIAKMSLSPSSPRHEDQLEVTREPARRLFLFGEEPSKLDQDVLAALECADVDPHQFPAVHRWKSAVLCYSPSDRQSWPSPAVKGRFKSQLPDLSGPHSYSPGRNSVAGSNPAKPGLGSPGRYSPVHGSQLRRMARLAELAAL
# UniProt Q86TI2: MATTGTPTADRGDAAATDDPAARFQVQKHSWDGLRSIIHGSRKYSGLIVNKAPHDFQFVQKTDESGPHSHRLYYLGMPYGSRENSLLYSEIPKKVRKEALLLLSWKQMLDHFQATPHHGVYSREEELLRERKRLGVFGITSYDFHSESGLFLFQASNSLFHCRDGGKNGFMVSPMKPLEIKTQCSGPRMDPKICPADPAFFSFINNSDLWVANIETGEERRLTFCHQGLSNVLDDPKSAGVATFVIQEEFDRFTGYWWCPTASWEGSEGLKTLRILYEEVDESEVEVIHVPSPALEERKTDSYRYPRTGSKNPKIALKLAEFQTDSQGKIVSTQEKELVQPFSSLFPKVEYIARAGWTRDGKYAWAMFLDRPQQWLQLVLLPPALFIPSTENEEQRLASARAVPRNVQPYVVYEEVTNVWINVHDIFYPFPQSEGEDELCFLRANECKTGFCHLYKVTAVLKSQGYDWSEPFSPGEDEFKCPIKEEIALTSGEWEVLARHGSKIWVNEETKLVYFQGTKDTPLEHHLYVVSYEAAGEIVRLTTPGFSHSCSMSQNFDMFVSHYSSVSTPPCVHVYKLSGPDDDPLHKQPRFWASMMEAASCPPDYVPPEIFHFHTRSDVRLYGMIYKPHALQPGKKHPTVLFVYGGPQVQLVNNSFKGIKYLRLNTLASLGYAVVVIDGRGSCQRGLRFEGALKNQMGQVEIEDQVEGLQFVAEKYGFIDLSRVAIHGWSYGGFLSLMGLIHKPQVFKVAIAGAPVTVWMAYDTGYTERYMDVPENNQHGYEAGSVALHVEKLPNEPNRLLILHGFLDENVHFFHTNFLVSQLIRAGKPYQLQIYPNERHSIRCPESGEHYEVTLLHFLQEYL
# UniProt Q7Z2K6: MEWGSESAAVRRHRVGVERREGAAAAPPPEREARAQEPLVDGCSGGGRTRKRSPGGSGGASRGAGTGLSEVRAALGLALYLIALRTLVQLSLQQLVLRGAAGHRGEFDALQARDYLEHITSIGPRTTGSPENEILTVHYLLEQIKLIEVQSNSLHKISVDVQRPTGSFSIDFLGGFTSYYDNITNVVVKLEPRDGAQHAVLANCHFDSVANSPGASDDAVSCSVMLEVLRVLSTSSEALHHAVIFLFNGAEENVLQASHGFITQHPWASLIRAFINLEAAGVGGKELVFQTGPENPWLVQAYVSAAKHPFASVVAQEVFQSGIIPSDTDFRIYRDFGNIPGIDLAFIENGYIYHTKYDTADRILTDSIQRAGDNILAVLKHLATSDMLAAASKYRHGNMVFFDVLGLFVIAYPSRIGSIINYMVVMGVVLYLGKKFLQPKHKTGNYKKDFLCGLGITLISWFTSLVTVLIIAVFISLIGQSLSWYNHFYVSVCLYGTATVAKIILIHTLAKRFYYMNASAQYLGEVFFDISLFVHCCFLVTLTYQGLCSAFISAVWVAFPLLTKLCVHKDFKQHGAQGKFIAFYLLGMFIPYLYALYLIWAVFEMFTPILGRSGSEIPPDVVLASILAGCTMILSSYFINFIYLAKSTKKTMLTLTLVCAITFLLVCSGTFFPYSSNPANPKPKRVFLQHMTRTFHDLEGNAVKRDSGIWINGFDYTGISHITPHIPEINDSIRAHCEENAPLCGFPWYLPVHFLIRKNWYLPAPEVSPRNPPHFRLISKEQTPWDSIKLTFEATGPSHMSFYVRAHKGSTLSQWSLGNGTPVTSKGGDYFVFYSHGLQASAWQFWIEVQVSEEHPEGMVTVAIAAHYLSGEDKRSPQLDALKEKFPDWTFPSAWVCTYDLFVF
# UniProt Q8IUH3: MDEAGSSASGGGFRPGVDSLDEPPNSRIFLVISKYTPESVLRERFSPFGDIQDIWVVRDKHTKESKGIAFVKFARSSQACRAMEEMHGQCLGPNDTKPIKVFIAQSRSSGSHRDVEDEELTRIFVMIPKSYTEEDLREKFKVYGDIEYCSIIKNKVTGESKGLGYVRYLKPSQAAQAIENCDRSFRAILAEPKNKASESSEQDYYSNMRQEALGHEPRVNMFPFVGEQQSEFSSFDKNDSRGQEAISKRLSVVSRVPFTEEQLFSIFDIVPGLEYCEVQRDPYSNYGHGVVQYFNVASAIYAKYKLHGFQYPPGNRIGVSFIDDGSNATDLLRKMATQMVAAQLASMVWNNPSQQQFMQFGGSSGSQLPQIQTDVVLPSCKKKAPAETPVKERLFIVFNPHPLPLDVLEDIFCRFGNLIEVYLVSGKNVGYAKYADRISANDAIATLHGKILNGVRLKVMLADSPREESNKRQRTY
# UniProt Q7KYR7: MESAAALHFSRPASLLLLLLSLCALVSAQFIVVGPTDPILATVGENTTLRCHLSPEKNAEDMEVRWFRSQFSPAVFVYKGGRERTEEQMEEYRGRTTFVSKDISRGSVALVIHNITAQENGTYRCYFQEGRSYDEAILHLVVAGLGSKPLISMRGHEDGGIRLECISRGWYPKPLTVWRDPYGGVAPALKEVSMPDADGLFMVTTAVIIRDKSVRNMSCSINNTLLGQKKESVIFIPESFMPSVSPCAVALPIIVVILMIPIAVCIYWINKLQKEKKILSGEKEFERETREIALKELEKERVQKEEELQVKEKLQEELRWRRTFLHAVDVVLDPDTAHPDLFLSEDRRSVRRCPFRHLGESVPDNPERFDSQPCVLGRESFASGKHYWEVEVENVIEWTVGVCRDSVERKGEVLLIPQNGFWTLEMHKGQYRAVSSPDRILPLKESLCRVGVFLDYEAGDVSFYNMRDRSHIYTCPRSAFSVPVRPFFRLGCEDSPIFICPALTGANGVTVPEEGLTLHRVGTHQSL
# UniProt Q86YC2, whole entry: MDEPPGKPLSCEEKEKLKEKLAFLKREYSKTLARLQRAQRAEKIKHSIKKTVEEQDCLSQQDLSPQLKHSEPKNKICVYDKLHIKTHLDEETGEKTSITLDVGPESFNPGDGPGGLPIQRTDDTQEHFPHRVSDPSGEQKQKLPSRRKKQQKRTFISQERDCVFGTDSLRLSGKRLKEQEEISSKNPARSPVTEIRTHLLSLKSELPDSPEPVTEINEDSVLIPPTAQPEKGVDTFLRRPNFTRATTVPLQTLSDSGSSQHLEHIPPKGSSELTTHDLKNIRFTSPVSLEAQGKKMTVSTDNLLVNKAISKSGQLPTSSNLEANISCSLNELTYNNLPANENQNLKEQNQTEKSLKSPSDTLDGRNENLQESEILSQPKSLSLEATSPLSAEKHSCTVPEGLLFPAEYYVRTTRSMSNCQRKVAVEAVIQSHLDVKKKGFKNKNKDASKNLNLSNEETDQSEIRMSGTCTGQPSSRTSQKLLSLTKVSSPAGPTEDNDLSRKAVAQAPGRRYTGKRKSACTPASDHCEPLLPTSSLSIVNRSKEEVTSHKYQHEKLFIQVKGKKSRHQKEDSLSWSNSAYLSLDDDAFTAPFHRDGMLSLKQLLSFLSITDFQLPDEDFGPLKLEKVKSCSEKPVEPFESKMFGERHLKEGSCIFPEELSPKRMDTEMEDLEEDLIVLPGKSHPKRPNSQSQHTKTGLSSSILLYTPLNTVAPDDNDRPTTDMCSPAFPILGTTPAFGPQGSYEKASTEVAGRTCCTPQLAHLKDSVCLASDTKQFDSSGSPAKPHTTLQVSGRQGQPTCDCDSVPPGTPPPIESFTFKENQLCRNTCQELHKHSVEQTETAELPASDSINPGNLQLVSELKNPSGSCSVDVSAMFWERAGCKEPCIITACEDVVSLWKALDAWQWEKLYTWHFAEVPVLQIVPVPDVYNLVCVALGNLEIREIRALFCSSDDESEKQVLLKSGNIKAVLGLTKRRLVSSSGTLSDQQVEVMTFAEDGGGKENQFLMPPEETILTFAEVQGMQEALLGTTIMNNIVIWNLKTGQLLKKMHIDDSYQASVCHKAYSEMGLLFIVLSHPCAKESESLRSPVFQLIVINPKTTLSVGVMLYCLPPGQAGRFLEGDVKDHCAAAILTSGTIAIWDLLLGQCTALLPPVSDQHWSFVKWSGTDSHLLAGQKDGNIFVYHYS
# ± gives the standard deviation of the averaged measurements. The list shows a part of the results, in another mix than the full data.
# Compound: Nc1ncnc2c1ncn2[C@@H]1O[C@H](COP(=O)(O)OP(=O)(O)OP(=O)(O)O)[C@@H](O)[C@H]1O [adenosine triphosphate]
# Assay: NP40-soluble protein abundance relative to vehicle (solubility fold change) (ratio); higher = more soluble protein in presence of ATP
# Outline: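 Jurkat crude lysate prepared with a Dounce homogeniser was treated at eight concentrations spanning 0.1 to 10 mM, 10 min at room temperature then 3 min at 37 °C. Solubilisation with 0.8% NP40 and benzonase and ultracentrifugation preceded TMT labelling of the supernatant for LC-MS/MS. Fold change against the detergent-processed vehicle was determined per replicate from vsn-normalised intensities, across three independent experiments.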
Target,NP40-soluble protein abundance (concentration: 1mM),NP40-soluble protein abundance (concentration: 2mM),NP40-soluble protein abundance (concentration: 4mM),NP40-soluble protein abundance (concentration: 6mM),NP40-soluble protein abundance (concentration: 8mM),NP40-soluble protein abundance (concentration: 10mM)
UniProt Q8IUZ5 and related entries,1 ± 0.18,0.967 ± 0.088,1.1 ± 0.086,1.04 ± 0.037,1.02 ± 0.064,0.992 ± 0.031
ATAD2 (UniProt Q6PL18),1.31 ± 0.083,1.33 ± 0.088,1.37 ± 0.11,1.37 ± 0.2,1.16 ± 0.11,1.31 ± 0.19
UniProt Q7Z7H8 and related entries,1.12 ± 0.07,1.02 ± 0.032,0.973 ± 0.026,0.95 ± 0.16,1.01 ± 0.11,0.939 ± 0.11
UniProt Q7L0Y3,1.02 ± 0.053,1.01 ± 0.025,0.998 ± 0.017,0.983 ± 0.059,1.03 ± 0.026,1.06 ± 0.031
ARHGAP30 (UniProt Q7Z6I6),0.971 ± 0.07,0.977 ± 0.029,0.979 ± 0.038,0.996 ± 0.039,0.958 ± 0.029,0.966 ± 0.031
RASAL3 (UniProt Q86YV0),1.06 ± 0.011,1.05 ± 0.036,1.05 ± 0.024,1.07 ± 0.044,1.07 ± 0.039,1.07 ± 0.04
UniProt Q8IUX7,0.778 ± 0.35,0.762 ± 0.34,0.785 ± 0.37,0.8 ± 0.41,0.769 ± 0.39,0.81 ± 0.39
UniProt Q7Z3D6-2|H0YB09 and related entries,1.01 ± 0.046,1.02 ± 0.049,1.02 ± 0.066,1.04 ± 0.11,1.01 ± 0.085,1.03 ± 0.055
UniProt Q6ZUT1 and related entries,0.986 ± 0.14,1.1 ± 0.027,1.13 ± 0.043,1.11 ± 0.05,1.09 ± 0.089,1.09 ± 0.11
UniProt Q8IU85 and related entries,1.07 ± 0.079,1.07 ± 0.059,1.04 ± 0.048,1.03 ± 0.097,1.05 ± 0.077,1.05 ± 0.026
UniProt Q6UWP7 and related entries,0.997 ± 0.088,0.996 ± 0.05,0.991 ± 0.081,0.94 ± 0.12,1.01 ± 0.08,0.969 ± 0.069
PAXIP1 (UniProt Q6ZW49),0.989 ± 0.04,0.961 ± 0.051,0.995 ± 0.027,0.915 ± 0.013,0.969 ± 0.033,1.06 ± 0.089
UniProt Q86XL3 and related entries,1.01 ± 0.026,0.987 ± 0.029,0.987 ± 0.038,1 ± 0.029,0.995 ± 0.016,0.985 ± 0.025
UniProt Q6UXB8 and related entries,0.96 ± 0.015,0.995 ± 0.025,0.942 ± 0.017,1.01 ± 0.028,0.962 ± 0.04,0.947 ± 0.07
UniProt Q6ZRS2 and related entries,1.25 ± 0.085,1.27 ± 0.077,1.31 ± 0.11,1.39 ± 0.23,1.35 ± 0.15,1.39 ± 0.12
DPP9 (UniProt Q86TI2),1.05 ± 0.12,1.02 ± 0.12,1.01 ± 0.095,0.937 ± 0.14,1.03 ± 0.059,1.01 ± 0.073
UniProt Q7Z2K6 and related entries,1.16 ± 0.19,1.03 ± 0.019,1.08 ± 0.25,1.09 ± 0.19,1.03 ± 0.21,0.997 ± 0.062
UniProt Q8IUH3 and related entries,1.04 ± 0.069,1.05 ± 0.062,1.08 ± 0.048,1.07 ± 0.059,1.05 ± 0.079,1.08 ± 0.066
UniProt Q7KYR7 and related entries,1.02 ± 0.051,1.1 ± 0.12,1.02 ± 0.057,1.08 ± 0.097,0.991 ± 0.069,1.06 ± 0.078
RBBP6 (UniProt Q7Z6E9),1.14 ± 0.069,1.17 ± 0.054,1.22 ± 0.067,1.35 ± 0.056,1.35 ± 0.064,1.36 ± 0.045
UniProt Q6ZN55 and related entries,1.05 ± 0.16,1.03 ± 0.24,1.01 ± 0.21,0.908 ± 0.11,0.97 ± 0.14,0.94 ± 0.13
UniProt Q6PJT7-3|Q6PJT7-5|Q6PJT7-9|Q6PJT7,1.21 ± 0.067,1.3 ± 0.04,1.38 ± 0.038,1.49 ± 0.02,1.416 ± 0.005,1.431 ± 0.0067
LYSMD2 (UniProt Q8IV50),0.949 ± 0.033,0.9325 ± 0.0077,0.88 ± 0.034,0.88 ± 0.03,0.88 ± 0.046,0.8365 ± 0.0052
WDR59 (UniProt Q6PJI9),1.13 ± 0.077,1.13 ± 0.04,1.2059 ± 0.0011,1.14 ± 0.018,1.19 ± 0.065,1.28 ± 0.035
HS2ST1 (UniProt Q7LGA3),1.11 ± 0.071,1.15 ± 0.015,1.22 ± 0.052,1.16 ± 0.094,1.26 ± 0.027,1.31 ± 0.025
UniProt Q712K3,0.958 ± 0.053,0.953 ± 0.025,0.927 ± 0.045,0.958 ± 0.03,0.919 ± 0.017,0.907 ± 0.027
PALB2 (UniProt Q86YC2),1.12 ± 0.29,1.08 ± 0.27,1 ± 0.14,1.06 ± 0.23,1.11 ± 0.15,1.07 ± 0.23
LDB1 (UniProt Q86U70),0.953 ± 0.011,0.957 ± 0.046,0.933 ± 0.049,0.954 ± 0.029,0.945 ± 0.032,0.937 ± 0.022
UniProt Q7Z2W9 and related entries,1.26 ± 0.063,0.965 ± 0.028,0.979 ± 0.16,0.829 ± 0.28,0.98 ± 0.25,0.929 ± 0.27
UniProt Q8IV53 and related entries,0.984 ± 0.072,0.982 ± 0.071,0.99 ± 0.049,0.976 ± 0.067,0.936 ± 0.041,0.954 ± 0.039

# Shown tab-delimited: part of the list above
Target	NP40-soluble protein abundance (concentration: 1mM)	NP40-soluble protein abundance (concentration: 2mM)	NP40-soluble protein abundance (concentration: 4mM)	NP40-soluble protein abundance (concentration: 6mM)	NP40-soluble protein abundance (concentration: 8mM)	NP40-soluble protein abundance (concentration: 10mM)
UniProt Q7Z3D6-2|H0YB09 and related entries	1.01 ± 0.046	1.02 ± 0.049	1.02 ± 0.066	1.04 ± 0.11	1.01 ± 0.085	1.03 ± 0.055
RBBP6 (UniProt Q7Z6E9)	1.14 ± 0.069	1.17 ± 0.054	1.22 ± 0.067	1.35 ± 0.056	1.35 ± 0.064	1.36 ± 0.045
